From patent publication US20140107188, “USE OF HGMA-TARGETED PHOSPHOROTHIOATE DNA APTAMERS TO SUPPRESS CARCINOGENIC ACTIVITY AND INCREASE SENSITIVITY TO CHEMOTHERAPY AGENTS IN HUMAN CANCER CELLS” (Miami University, published 2014)
The exact form of at least one protein or probe is not confirmed.

System: HMGA1/HMGA2 (endogenous) (Homo sapiens)
Assay: activity in cells
Conditions: PS at all linkages on both strands, 0.1 ug transfection, protein in cells

CCCACTGCAGTCGGACTCACTCGC (double strand) [Mix-sDNA]
functional effect of the aptamer (negative control, not significant, scale: fold change in AsPC-1 viable cells vs TC at 96 h): -1.14

CCCCGGGCCCCGGCCGGGCGCCGC (double strand) [CG-sDNA]
functional effect of the aptamer (negative control, scale: % decrease in AsPC-1 viability vs TC at 96 h): 9.7

GGGAAAAAATTTTTTAAAAAACCC (double strand) [AT-sDNA]
functional effect of the aptamer (indirect, HMGA inhibition presumed, HMGA1 level unchanged, scale: % decrease in AsPC-1 viability vs TC at 96 h): 30.7
